Results taken from US8003096B2, “Means and methods for the recruitment and identification of stem cells” (Vlaams Interuniversitair Instituut voor Biotechnologie VZW, priority 2003, dated 2011).
For at least one compound, name, drawing or mass did not settle the structure.

Tested on: hematopoietic progenitor cells (HPCs)
Assay: Circulating CFU-C assay on PB MNCs (mobilized HPCs)
Format: in vivo, mouse
Details: WT mice, G-CSF and drug via drinking water for five days
Procedure: To study the role of the plasminogen proteinase system with its plasminogen activators tPA and uPA, and active plasmin in stem/progenitor cell mobilization, mice lacking plasminogen (Plg^−/−), tPA (tPA^−/−), uPA (uPA^−/−) and both activators (tPA^−/−uPA^−/−) were used.^(17, 18) Age- and sex-matched mice were kept in IVC cages. Mobilization was induced either via a single sublethal injection i.v. of the myeloablative agent 5-fluorouracil (5-FU, 200-250 mg/kg), or via administration s.c. of recombinant human G-CSF (Filgrastim, Amgen, 200 μg/kg/d) for five consecutive days.^(12) Peripheral blood (PB) samples were obtained by retro-orbital bleeding under light anesthesia. Full blood counts were determined on the Abbott Cell Dyn 1300 hemocytometer. The number of mobilized hematopoietic progenitor cells (HPCs) in the circulation was determined via methylcellulose-based CFU-C assays (MethoCult, Stem Cell Technologies), per 10^5 peripheral blood mononuclear cells (PB MNCs).^(12) The number of mobilized hematopoietic stem cells (HSCs) in the circulation was quantified via splenic colony-forming assays (CFU-S), and evaluated for long-term engraftment via transplantation into lethally irradiated syngeneic wild-type recipients (9.5 Gy total body irradiation). […]

C[C@H]1c2cccc(O)c2C(=O)C2=C(O)[C@]3(O)C(=O)C(C(N)=O)=C(O)[C@@H](N(C)C)[C@@H]3[C@@H](O)[C@@H]21 [doxycycline]
recruitment (circulating CFU-Cs) in response to G-CSF: impaired recruitment
